{
  "source": "paper PMC12561193",
  "key": {"[1]": {"molecular_target": "T1, full-length mouse Glce (AAV-mGlce) (mouse) (UniProt Q9EPS3)", "T1 sequence": "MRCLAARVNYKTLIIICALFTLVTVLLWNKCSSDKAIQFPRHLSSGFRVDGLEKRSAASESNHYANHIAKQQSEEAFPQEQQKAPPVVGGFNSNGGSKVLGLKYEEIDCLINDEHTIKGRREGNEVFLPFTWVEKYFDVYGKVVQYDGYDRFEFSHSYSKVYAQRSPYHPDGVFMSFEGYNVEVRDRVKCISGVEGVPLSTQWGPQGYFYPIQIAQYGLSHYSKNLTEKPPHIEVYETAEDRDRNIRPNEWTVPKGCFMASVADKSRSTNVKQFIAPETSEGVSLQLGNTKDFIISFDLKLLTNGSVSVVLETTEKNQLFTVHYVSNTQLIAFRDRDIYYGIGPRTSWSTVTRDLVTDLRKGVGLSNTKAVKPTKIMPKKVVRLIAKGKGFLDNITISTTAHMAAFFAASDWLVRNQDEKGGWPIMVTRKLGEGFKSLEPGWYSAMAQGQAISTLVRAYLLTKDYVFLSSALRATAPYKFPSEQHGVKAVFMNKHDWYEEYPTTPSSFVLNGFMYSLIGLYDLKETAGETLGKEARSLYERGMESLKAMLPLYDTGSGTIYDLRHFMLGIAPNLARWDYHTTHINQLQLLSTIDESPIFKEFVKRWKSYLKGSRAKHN", "test": "co-IP; kidneys of Glce-/- mice with sham or UUO treatment after AAV injection; GAPDH as input loading control"}, "[2]": {"molecular_target": "T2, Glce in HK-2 cells (human (endogenous in HK-2)) (UniProt O94923)", "T2 sequence": "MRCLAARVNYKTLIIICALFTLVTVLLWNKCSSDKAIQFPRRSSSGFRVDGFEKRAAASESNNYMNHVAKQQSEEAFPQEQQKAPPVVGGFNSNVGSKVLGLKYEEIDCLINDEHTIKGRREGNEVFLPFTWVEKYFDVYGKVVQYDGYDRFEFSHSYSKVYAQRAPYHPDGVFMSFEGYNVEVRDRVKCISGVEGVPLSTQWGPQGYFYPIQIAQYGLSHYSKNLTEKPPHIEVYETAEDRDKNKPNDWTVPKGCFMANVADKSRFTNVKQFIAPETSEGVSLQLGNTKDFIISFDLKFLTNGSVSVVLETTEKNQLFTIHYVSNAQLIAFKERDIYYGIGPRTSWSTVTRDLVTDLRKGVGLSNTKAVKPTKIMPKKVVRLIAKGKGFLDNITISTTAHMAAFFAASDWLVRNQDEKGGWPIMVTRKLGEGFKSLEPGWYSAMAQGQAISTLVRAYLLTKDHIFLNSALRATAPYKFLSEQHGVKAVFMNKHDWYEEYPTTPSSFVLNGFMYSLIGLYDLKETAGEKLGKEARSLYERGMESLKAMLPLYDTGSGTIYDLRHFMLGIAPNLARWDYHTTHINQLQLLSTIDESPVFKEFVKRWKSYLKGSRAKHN", "test": "co-IP; HK-2 cells, with or without EGFR activation by EGF; GAPDH as input loading control"}},
  "note": "These are yes or no findings as the source states them, for the method shown. Binding seen in cells or lysates may run through a third protein. Some binding calls cover weakened binding; strength is not graded here.",
  "data": [
    {"substance": "EGFR in mouse kidney (from UniProt Q01279 25-1210) (receptor)", "values": [
      {"measurement": "binding", "setting": "[1]", "result": "binds"}
    ]},
    {"substance": "epidermal growth factor receptor (EGFR) in HK-2 cells (from UniProt P00533 25-1210)", "values": [
      {"measurement": "binding", "setting": "[2]", "result": "binds"}
    ]}
  ]
}
